Several values for one entry are separate records, joined by “and”; a condition that tells them apart may be missing. Identical values can stand only once. The list shows a part of the results. For some assays here: The exact form of the protein is not confirmed.

Protein sequences, listed by entry. Tags and fused reporters are not part of them.
UniProt P45973, whole entry: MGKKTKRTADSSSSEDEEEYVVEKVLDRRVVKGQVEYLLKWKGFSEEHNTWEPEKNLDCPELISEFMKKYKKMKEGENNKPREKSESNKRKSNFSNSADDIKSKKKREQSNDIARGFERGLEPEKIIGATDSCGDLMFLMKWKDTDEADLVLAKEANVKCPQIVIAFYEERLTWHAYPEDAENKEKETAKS

Common to all, as to assay: protein microarray (ProtoArray v5.0), streptavidin-Alexa Fluor 647
Settings in all cases: 3'-biotin; 20 mM Tris (pH 7.5), 5 mM MgCl2, 100 mM KCl, 0.1% Tween-20, A/T-rich and random oligonucleotide blockers; temperature not stated; high values mean tight binding

Assay [1] has as its system CAMK1D (human).
In assay [2] the test system is CAMK4 (human).
In assay [3] the test system is CANT1 (human).
Assay [4] deals with CAPNS2 (human).
Assay [5] deals with CAPS (human).
In assay [6] the test system is CAPZA2 (human).
Assay [7] relates to CAT (human).
For assay [8], the system named is CBS (human).
The target of assay [9] is CBX5 (UniProt P45973).
Assay [10] relates to CCDC107 (human).
Assay [11] deals with T1, CCDC115 (UniProt Q96NT0).
T1 sequence: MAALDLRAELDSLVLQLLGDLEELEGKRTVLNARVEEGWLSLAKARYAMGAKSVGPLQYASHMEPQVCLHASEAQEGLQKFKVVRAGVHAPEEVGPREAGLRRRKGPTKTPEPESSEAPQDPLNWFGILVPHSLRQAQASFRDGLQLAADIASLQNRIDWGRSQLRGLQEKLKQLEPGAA

Assay [12] has as its system CCDC32 (human).
Assay [13] relates to CCDC40 (human).
Assay [14] concerns CCDC82 (human).
For assay [15], the system named is CCDC83 (human).
Assay [16] deals with CCL3 (human).
The test system of assay [17] is CCL3L3 (human).
The subject of assay [18] is CCL4 (human).
Assay [19] has as its target T2, CCNF (UniProt P41002).
T2 sequence: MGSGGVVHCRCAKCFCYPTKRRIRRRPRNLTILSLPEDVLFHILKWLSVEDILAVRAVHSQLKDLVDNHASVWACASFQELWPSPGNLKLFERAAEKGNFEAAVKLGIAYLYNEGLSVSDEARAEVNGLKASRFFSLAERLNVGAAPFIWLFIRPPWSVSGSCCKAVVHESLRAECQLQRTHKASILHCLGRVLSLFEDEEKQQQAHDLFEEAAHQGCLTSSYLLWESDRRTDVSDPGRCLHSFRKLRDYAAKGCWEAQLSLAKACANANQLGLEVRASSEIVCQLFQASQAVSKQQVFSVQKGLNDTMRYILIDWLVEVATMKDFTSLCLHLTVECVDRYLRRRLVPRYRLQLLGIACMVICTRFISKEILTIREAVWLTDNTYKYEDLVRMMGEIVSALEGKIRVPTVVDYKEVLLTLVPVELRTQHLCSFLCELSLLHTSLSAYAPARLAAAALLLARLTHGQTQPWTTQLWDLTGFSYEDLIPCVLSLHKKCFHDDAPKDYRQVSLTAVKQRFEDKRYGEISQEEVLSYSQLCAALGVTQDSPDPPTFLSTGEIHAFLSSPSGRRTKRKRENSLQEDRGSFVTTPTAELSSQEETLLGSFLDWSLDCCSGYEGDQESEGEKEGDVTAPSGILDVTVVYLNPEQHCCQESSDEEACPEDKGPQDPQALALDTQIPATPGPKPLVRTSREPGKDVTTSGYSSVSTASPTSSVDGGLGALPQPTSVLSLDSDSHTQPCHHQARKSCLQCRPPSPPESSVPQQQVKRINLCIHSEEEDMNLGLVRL

Assay [20] relates to CCT2 (human).

For “GGGGACAGGGGTATGGGGAGGGG [G4-3 biotinylated (CtG)]”, the binding signal is -0.334 z-score and -0.333 z-score in [1]; -0.331 z-score in assay [2]; -0.324 z-score in assay [3]; -0.32 z-score in assay [4]; -0.335 z-score and -0.343 z-score in [5]; -0.322 z-score in [6]. In addition, the binding signal in [7] was -0.338 z-score; in assay [8], -0.331 z-score; in assay [9], 3.91 z-score; in assay [10] it was -0.316 z-score; in assay [11], -0.322 z-score; in assay [12] it was -0.349 z-score. Moreover, the binding signal is -0.329 z-score in assay [13]; -0.33 z-score in [14]; -0.315 z-score in [15]; -0.335 z-score in [16]; -0.319 z-score in assay [17]; -0.308 z-score in assay [18]. Besides, the binding signal in [19] is -0.323 z-score; in assay [20], -0.326 z-score.

Values taken from paper PMC5996148.
